These results are taken from patent US20180079819A1.

In the assay the target is T1, extracellular domain of the control GMRα protein (residues 1-325), histidine tagged (UniProt P15509).
T1 sequence (looked up): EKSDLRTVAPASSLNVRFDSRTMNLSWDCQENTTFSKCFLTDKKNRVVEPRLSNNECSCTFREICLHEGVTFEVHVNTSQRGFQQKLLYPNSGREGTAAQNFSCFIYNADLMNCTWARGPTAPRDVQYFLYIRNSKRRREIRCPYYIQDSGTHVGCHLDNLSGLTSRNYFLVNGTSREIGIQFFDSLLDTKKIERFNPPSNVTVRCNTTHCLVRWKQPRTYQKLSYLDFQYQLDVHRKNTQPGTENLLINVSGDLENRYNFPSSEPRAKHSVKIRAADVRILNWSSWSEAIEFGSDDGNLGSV
As to the kind of experiment: ELISA on plate-coated His-tagged protein, A450. (In general: In an ELISA, binding on a coated surface is turned into a signal by an enzyme label.)

No constants are given. Whether binding was seen depends on the method and setting. Where a sequence is shown, tags or fusion partners need not be part of it.

B1: chCD123-14 (antibody, V domains shown)
VH: EVKLVESGGDLVKPGGSLKLSCAASGFTFSNYAMSWVRQNSEKRLEWVATINSGGSFTYYPDSVKGRFTISRDNAKDSLYLQMSSLNSEDTAMYYCARQSEAYYGYDKRTWFAYWGQGTLVTVSS
VL: DILLTQSPAILSVSPGTRVSFSCRASQSVGTSIHWYQQRPNGFPRLLIKYASESISGIPSRFSGSGSGTDFTLNINSVESEDIADYYCQQSKSWPLTFGAGTKLELKR
Take B1: the binding result is reported as “no binding (tested: 1e-7 M)”.

B2: chCD123-3 (antibody, human IgG1, V domains shown)
VH: EFQLQQSGPEVVKPGASVKMSCKASGYTFTSYVMHWMKQKPGQGLEWIGYIKPYKDGTKYNEKFKGKATLISDKPSSTAYMELSSLTSEDSAVYYCAREGENGYYDAMDYWGQGTSVTVSS
VL: DIQMTQSPSSLSASLGGKVTITCKASQDINKYIAWYQHKPGKGPRLLIHYTSTLQPGIPSRFSGSGSGRDYSFSISNLEPEDIATYYCLQYDNLLYTFGGGTKLELKR
Consider B2, for which the binding result was “no binding (tested: 1e-7 M)”.
